In PubChem BioAssay AID328 (DTP/NCI, 2004):
The list does not hold the whole screen: it gathers tests that were run many times, whatever their T/C, doses with no T/C, and many T/C values between a quarter and a half above the control. Other doses and runs of a compound stand elsewhere. T/C: endpoint of the treated group in % of that of the vehicle group. Some entries give survivors of the animals treated and no T/C: the source holds a T/C of zero for them, seemingly a mark for toxic or unscored doses. Some survivor counts are full or nearly so, which does not show that the dose was tolerated: the source hardly ever lists a survival T/C far under the control, and the zero likely stands for such cases as well. Survivors were counted at the toxicity check, usually on the fifth day, unless a day is given; later deaths do not show. Schedule codes are those of the source, read here as Q, the interval in days (D) or hours (H), X, the number of doses. Some doses were run more than once; their values stand side by side, smallest first. Where survival is the endpoint, the PubChem record calls one and a half times the control and up active, and a quarter to a half above the control has no call in these data; cut-offs in other NCI protocols can differ.

Tested on: BDF1 mice, P388 leukemia ip, median survival T/C
Assay: NCI In Vivo Anticancer Drug Screen. Data for tumor model P388 Leukemia (intraperitoneal) in B6D2F1 (BDF1) mice
Details: T/C endpoint: median survival time, higher T/C = longer survival
How it was run: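 Each value expresses how treatment altered survival: treated-mouse outcome over vehicle-mouse outcome, both groups bearing the transplanted tumour.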

[1] = dose: 12.5 mg/kg/injection, schedule: Q01DX009 (ip), vehicle: saline with Tween-80
[2] = dose: 25.0 mg/kg/injection, schedule: Q01DX009 (ip), vehicle: saline with Tween-80
[3] = dose: 50.0 mg/kg/injection, schedule: Q01DX009 (ip), vehicle: saline with Tween-80
[4] = dose: 100.0 mg/kg/injection, schedule: Q01DX009 (ip), vehicle: saline with Tween-80
[5] = dose: 200.0 mg/kg/injection, schedule: Q01DX009 (ip), vehicle: saline with Tween-80
[6] = dose: 25.0 mg/kg/injection, schedule: Q04DX003 (ip), vehicle: saline with Tween-80

CCCCCCCCCCCC[N+](C)(C)Cc1ccccc1
T/C (dose: 3.12 mg/kg/injection, schedule: Q01DX009 (ip), vehicle: saline): 127 and 133 % of control
T/C (dose: 4.68 mg/kg/injection, schedule: Q01DX009 (ip), vehicle: saline): 142 % of control
survivor count (dose: 6.6 mg/kg/injection, schedule: Q01DX009 (ip), vehicle: saline): 0 of 6
survivor count (dose: 7.0 mg/kg/injection, schedule: Q04DX003 (ip), vehicle: saline): 4 of 6
survivor count (dose: 10.0 mg/kg/injection, schedule: Q01DX009 (ip), vehicle: saline): 0 of 6
survivor count (dose: 14.0 mg/kg/injection, schedule: Q04DX003 (ip), vehicle: saline): 4 of 6
survivor count (dose: 15.0 mg/kg/injection, schedule: Q01DX009 (ip), vehicle: saline): 0 of 6

CC(C1CCC/C(=N\NC(N)=O)C1)[N+](=O)[O-] (configuration not stated)
T/C (dose: 0.78 mg/kg/injection, schedule: Q01DX009 (ip), vehicle: saline with Tween-80): 134 % of control
survivor count [1]: 6 of 6
survivor count [2]: 6 of 6
survivor count [3]: 5 of 6 and 6 of 6
survivor count [4]: 5 of 6
survivor count [5]: 1 of 6

CC(CN(C)C)CN1c2ccccc2Sc2ccccc21 (configuration not stated)
T/C [1]: 131 % of control
T/C [6]: 126 % of control
survivor count (dose: 33.0 mg/kg/injection, schedule: Q04DX003 (ip), vehicle: saline with Tween-80): 6 of 6
survivor count [3]: 3 of 6
survivor count (dose: 50.0 mg/kg/injection, schedule: Q01DX009 (ip), vehicle: saline): 3 of 6
survivor count [4]: 1 of 6
survivor count (dose: 100.0 mg/kg/injection, schedule: Q01DX009 (ip), vehicle: saline): 0 of 6
survivor count (dose: 100.0 mg/kg/injection, schedule: Q04DX003 (ip), vehicle: Klucel (hydroxypropylcellulose) (HPC)): 0 of 6

O=C1CSC(=O)CS1
survivor count [5]: 4 of 6

COc1cc([C@@H]2c3cc4c(cc3[C@@H](OC3OC5CO[C@@H](c6cccs6)OC5C(O)C3O)[C@H]3COC(=O)[C@H]23)OCO4)cc(OC)c1O (some centres not stated)
survivor count (dose: 4.0 mg/kg/injection, schedule: Q01DX010 (ip), vehicle: saline): 6 of 6

O=C1NC(=O)C(=Cc2cc3c(cc2Br)OCO3)C(=O)N1
T/C [5]: 132 % of control

CCCCNC(C)(C)C(SSSC(c1cccs1)C(C)(C)NCCCC)c1cccs1 (configuration not stated)
T/C (dose: 100.0 mg/kg/injection, schedule: Q04DX003 (ip), vehicle: saline with Tween-80): 127 % of control

CC(O)C1(O)C(O)CC(OC2c3cc4c(c(O)c3[C@@H]3C[C@@]2(C)OC32C=c3cc[nH]c3=N2)C(=O)c2cccc(O)c2C4=O)OC1C (some centres not stated)
T/C (dose: 4.0 mg/kg/injection, schedule: Q01DX009 (ip), vehicle: saline): 131 and 144 % of control

COc1cccc2c1C(=O)c1c(O)c3c(c(O)c1C2=O)C[C@@](O)(/C(C)=N\NC(=O)CO)C[C@@H]3OC1CC(N)C(O)C(C)O1 (some centres not stated)
T/C (dose: 6.25 mg/kg/injection, schedule: Q04DX003 (ip), vehicle: saline): 139 % of control
survivor count (dose: 12.5 mg/kg/injection, schedule: Q04DX003 (ip), vehicle: saline): 6 of 6
survivor count (dose: 25.0 mg/kg/injection, schedule: Q04DX003 (ip), vehicle: saline): 6 of 6
T/C (dose: 66.0 micrograms/kg/injection, schedule: Q01DX009 (ip), vehicle: saline): 144 % of control
T/C (dose: 100.0 micrograms/kg/injection, schedule: Q01DX009 (ip), vehicle: saline): 142 % of control

Nc1nccc(NC(c2ccccc2)c2ccccc2)c1N
survivor count (dose: 25.0 mg/kg/injection, schedule: Q01DX009 (ip), vehicle: DMSO): 1 of 6
survivor count (dose: 50.0 mg/kg/injection, schedule: Q01DX009 (ip), vehicle: DMSO): 0 of 6

CC(=O)CC(C)=O.CC(=O)CC(C)=O.CC(C)c1ncc[nH]1.O=N[O-].[Co]
T/C (dose: 400.0 mg/kg/injection, schedule: Q04DX002 (ip), vehicle: saline with Tween-80): 125 % of control

ON=C1CSSC1
survivor count (dose: 20.0 mg/kg/injection, schedule: Q04DX003 (ip), vehicle: saline with Tween-80): 0 of 6
survivor count [2]: 0 of 6
survivor count [6]: 1 of 6
